This is an account of results in PMC7005177.

Protein sequences, listed by entry. Tags and fused reporters are not part of them.
UniProt P07355: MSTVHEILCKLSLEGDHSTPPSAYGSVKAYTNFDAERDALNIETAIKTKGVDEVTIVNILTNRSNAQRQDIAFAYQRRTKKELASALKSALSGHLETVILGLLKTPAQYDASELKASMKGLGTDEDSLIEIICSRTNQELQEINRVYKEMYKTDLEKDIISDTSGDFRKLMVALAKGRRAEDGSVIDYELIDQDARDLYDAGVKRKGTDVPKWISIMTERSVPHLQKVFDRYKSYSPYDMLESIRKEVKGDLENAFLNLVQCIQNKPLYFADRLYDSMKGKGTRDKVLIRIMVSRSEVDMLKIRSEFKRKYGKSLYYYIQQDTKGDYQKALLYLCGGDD
UniProt Q92608: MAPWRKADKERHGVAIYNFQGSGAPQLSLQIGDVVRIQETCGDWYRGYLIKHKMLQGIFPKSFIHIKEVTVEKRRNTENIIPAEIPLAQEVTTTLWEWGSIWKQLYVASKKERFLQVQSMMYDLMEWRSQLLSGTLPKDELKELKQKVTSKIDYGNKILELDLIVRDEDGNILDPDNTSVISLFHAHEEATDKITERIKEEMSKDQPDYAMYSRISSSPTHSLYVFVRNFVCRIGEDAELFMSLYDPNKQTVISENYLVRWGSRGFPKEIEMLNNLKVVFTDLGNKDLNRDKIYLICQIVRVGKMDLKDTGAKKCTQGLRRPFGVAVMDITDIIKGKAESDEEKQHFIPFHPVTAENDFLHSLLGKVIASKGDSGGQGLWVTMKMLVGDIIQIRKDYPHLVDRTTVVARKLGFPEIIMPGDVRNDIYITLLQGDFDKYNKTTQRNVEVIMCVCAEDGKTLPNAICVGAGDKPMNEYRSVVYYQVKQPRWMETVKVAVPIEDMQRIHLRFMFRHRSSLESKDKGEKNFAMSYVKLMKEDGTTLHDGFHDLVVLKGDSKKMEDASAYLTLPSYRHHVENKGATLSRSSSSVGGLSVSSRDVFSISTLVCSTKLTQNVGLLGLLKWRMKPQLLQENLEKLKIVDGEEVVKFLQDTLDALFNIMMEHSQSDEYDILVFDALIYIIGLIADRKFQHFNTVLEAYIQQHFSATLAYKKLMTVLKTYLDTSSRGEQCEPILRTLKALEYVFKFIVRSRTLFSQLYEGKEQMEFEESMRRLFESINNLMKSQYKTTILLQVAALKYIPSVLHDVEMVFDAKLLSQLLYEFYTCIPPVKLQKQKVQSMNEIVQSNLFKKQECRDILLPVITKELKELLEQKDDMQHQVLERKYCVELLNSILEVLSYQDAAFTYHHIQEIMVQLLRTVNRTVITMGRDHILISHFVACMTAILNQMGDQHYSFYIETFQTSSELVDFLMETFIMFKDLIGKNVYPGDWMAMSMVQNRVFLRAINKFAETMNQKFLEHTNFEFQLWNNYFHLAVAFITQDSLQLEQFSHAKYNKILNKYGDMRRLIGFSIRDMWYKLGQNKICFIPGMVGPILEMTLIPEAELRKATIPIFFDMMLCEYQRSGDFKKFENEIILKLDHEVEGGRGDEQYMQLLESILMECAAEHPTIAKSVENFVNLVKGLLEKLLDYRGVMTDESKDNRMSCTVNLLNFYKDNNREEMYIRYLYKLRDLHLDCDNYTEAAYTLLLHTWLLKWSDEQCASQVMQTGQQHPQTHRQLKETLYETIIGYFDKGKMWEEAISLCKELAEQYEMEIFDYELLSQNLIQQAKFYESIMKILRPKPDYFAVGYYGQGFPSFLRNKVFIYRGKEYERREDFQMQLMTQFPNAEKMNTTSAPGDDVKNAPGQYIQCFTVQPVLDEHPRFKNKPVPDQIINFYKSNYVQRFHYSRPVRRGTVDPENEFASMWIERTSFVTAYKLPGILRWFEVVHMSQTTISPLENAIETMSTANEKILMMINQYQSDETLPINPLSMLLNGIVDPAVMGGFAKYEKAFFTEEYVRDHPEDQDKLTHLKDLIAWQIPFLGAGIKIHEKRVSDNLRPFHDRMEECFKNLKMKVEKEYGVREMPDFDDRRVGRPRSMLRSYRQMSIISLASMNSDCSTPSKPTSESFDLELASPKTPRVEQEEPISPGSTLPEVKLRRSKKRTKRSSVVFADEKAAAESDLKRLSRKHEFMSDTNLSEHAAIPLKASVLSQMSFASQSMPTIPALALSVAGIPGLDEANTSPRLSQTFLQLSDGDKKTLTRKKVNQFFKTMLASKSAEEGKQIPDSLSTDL
UniProt O14641: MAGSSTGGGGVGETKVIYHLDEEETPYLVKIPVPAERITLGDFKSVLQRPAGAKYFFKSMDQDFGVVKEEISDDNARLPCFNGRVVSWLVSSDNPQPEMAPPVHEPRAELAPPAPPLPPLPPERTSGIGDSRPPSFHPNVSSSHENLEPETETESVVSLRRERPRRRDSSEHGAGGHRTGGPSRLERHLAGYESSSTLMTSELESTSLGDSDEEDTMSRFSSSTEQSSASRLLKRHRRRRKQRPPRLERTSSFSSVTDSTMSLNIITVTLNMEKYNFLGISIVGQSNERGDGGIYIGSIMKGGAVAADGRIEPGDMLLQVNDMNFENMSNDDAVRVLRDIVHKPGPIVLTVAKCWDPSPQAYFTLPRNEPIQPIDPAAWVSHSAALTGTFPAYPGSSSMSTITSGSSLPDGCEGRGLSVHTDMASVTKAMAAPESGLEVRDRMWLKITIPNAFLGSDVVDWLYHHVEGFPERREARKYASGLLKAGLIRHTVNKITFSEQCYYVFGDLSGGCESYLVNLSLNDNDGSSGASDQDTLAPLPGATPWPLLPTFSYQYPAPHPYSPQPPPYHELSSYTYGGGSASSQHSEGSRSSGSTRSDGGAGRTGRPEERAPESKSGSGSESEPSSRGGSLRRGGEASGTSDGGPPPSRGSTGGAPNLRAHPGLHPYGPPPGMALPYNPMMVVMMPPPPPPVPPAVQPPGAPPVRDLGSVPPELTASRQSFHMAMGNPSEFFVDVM
UniProt P27816: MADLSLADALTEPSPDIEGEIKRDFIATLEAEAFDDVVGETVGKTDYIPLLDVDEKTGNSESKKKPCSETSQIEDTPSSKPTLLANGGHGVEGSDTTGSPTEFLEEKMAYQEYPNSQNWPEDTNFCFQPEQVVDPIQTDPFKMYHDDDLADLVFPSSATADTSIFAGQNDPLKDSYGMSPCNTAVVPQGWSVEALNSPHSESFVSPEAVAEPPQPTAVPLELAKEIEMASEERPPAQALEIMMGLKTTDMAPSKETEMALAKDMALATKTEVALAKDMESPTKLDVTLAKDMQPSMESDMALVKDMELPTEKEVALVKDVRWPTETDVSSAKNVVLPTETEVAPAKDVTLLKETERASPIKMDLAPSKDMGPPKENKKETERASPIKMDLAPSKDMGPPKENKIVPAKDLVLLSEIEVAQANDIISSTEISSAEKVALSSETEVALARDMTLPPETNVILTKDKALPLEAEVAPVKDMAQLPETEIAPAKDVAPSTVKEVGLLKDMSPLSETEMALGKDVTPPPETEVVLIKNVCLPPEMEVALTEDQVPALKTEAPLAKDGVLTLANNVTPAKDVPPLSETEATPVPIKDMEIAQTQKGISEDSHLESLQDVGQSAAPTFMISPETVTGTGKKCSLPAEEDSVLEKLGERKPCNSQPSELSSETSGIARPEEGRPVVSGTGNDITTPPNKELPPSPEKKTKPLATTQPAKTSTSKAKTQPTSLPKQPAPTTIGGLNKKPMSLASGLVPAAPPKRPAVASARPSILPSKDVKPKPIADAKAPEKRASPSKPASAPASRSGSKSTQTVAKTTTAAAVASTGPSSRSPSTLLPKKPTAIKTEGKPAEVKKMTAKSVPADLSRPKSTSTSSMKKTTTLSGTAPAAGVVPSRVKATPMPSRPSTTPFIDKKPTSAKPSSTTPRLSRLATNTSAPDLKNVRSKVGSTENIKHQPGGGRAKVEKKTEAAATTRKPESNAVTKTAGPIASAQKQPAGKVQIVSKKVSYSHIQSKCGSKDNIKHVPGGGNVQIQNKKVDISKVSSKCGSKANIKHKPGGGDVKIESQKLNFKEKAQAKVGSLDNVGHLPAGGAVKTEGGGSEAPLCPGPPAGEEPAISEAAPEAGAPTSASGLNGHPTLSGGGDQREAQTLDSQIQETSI
UniProt Q9Y266: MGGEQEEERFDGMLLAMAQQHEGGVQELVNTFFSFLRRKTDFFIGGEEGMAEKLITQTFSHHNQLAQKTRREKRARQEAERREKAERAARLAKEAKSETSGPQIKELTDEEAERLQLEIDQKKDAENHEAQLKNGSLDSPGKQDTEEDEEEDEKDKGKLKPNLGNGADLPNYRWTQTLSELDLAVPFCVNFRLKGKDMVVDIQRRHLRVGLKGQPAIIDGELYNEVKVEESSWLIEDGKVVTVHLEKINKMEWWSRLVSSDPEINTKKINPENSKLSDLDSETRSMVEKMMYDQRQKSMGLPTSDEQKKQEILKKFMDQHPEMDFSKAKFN
UniProt P36873: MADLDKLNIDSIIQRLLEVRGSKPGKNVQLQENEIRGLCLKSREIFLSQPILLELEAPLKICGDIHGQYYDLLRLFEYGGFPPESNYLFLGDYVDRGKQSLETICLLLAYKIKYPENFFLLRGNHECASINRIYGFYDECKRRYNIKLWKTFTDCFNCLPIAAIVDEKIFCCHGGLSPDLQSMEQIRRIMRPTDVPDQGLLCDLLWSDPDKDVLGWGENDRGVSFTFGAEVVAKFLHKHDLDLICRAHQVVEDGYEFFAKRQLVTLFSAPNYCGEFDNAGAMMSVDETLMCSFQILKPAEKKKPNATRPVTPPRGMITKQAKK
UniProt P16949: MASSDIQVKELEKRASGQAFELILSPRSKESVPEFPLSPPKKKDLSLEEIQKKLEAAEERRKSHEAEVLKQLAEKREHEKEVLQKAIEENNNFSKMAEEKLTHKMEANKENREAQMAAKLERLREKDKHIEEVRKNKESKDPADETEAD

Results are given in words; binding and its absence hold for the method and conditions named. In cells and extracts the contact can be indirect. Here binding means that the protein was enriched with, or labelled near, the bait; the list need not be complete. Tags and fused reporters may be left off the sequences shown.

In this test the target is T1, RASSF2-BioID2 (Ras-association domain family member 2 with BioID2 fused to its C-terminus through a linker peptide) (not stated (human or mouse cDNA cloned)) (UniProt P50749).
T1 sequence: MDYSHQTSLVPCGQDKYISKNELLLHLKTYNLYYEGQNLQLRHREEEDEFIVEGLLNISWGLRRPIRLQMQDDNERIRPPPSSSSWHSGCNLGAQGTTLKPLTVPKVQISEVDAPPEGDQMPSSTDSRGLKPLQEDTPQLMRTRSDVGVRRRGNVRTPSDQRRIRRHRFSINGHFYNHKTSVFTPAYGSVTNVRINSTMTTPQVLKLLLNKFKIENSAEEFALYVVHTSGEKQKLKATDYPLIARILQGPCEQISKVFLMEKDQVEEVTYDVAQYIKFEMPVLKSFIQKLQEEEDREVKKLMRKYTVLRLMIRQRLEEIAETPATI
Briefly: proximity labelling; BioID2: Kasumi-1 cells stably expressing RASSF2-BioID2 or Control-BioID2, 50 uM biotin for 48 h, lysis, streptavidin-conjugated beads, stringent washing, mass spectrometry; filtered on the CRAPome; three independent replicates.

In the case of ANXA2 (from UniProt P07355 1-339), the binding result is on record as “binds”.

Consider “DOCK2, Rac1/2-specific atypical guanine nucleotide exchange factor, endogenous in Kasumi-1 cells (from UniProt Q92608 1-1830)”, for which the binding result is “binds”.

In the case of DVL2 (from UniProt O14641 1-736), the binding result was “binds”.

For MAP4 (from UniProt P27816 1-1152), the binding entry is “binds”. For the molecule NUDC (from UniProt Q9Y266 1-331), the binding result is given as “binds”. The entry for PPP1CC (from UniProt P36873 1-323) is “binds”; for STMN1 (from UniProt P16949 1-149) it is “binds”.

B1: FKBP4 (protein, UniProt Q02790 1-459)
chain: MTAEEMKATESGAQSAPLPMEGVDISPKQDEGVLKVIKREGTGTEMPMIGDRVFVHYTGWLLDGTKFDSSLDRKDKFSFDLGKGEVIKAWDIAIATMKVGEVCHITCKPEYAYGSAGSPPKIPPNATLVFEVELFEFKGEDLTEEEDGGIIRRIQTRGEGYAKPNEGAIVEVALEGYYKDKLFDQRELRFEIGEGENLDLPYGLERAIQRMEKGEHSIVYLKPSYAFGSVGKEKFQIPPNAELKYELHLKSFEKAKESWEMNSEEKLEQSTIVKERGTVYFKEGKYKQALLQYKKIVSWLEYESSFSNEEAQKAQALRLASHLNLAMCHLKLQAFSAAIESCNKALELDSNNEKGLFRRGEAHLAVNDFELARADFQKVLQLYPNNKAAKTQLAVCQQRIRRQLAREKKLYANMFERLAEEENKAKAEASSGDHPTDTEMKEEQKSNTAGSQSQVETEA
On to B1, for which the binding entry is given as “binds”.

B2: STMN2 (protein, UniProt Q93045 1-179)
chain: MAKTAMAYKEKMKELSMLSLICSCFYPEPRNINIYTYDDMEVKQINKRASGQAFELILKPPSPISEAPRTLASPKKKDLSLEEIQKKLEAAEERRKSQEAQVLKQLAEKREHEREVLQKALEENNNFSKMAEEKLILKMEQIKENREANLAAIIERLQEKERHAAEVRRNKELQVELSG
As for B2, the binding entry is on record as “binds”.
